The target in this test is T1, FLAG-BirA^R118G-HAUS6 (UniProt Q7Z4H7).
T1 sequence: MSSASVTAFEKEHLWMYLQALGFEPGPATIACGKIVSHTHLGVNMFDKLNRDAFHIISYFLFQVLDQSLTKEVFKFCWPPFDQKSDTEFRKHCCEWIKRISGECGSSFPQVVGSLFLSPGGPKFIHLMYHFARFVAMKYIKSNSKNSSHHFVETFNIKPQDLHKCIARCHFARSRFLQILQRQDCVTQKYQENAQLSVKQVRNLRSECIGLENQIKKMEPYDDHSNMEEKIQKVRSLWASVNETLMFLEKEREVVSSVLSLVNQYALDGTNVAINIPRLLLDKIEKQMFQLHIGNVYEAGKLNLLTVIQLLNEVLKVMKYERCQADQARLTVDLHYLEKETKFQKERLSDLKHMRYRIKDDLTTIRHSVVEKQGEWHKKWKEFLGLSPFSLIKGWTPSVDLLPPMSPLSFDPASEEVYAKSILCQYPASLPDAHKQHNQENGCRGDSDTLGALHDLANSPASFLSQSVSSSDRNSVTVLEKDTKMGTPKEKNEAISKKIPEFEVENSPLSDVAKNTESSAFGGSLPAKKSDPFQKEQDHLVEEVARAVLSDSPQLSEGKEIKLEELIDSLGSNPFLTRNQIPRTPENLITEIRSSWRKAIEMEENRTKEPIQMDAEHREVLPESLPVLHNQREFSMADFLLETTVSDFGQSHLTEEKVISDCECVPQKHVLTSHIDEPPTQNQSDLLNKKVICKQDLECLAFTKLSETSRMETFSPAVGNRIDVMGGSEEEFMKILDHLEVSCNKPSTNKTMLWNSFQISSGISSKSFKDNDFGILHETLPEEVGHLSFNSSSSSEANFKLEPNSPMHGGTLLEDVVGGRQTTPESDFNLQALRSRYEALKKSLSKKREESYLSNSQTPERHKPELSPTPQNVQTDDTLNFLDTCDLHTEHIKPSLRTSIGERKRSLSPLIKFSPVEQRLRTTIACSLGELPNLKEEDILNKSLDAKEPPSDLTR
Put plainly: proximity labelling; BioID: U2OS cells stably expressing BirA-HAUS6 (BirA alone as negative control), 50 μM biotin overnight, lysis in RIPA buffer, streptavidin agarose capture of biotinylated proteins, mass spectrometry, SAINTexpress (BFDR ≤ 0.02, FC ≥ 3); performed once.

Sequences of proteins named here, by UniProt entry; tags and fusion partners are left off.
UniProt Q96CW5: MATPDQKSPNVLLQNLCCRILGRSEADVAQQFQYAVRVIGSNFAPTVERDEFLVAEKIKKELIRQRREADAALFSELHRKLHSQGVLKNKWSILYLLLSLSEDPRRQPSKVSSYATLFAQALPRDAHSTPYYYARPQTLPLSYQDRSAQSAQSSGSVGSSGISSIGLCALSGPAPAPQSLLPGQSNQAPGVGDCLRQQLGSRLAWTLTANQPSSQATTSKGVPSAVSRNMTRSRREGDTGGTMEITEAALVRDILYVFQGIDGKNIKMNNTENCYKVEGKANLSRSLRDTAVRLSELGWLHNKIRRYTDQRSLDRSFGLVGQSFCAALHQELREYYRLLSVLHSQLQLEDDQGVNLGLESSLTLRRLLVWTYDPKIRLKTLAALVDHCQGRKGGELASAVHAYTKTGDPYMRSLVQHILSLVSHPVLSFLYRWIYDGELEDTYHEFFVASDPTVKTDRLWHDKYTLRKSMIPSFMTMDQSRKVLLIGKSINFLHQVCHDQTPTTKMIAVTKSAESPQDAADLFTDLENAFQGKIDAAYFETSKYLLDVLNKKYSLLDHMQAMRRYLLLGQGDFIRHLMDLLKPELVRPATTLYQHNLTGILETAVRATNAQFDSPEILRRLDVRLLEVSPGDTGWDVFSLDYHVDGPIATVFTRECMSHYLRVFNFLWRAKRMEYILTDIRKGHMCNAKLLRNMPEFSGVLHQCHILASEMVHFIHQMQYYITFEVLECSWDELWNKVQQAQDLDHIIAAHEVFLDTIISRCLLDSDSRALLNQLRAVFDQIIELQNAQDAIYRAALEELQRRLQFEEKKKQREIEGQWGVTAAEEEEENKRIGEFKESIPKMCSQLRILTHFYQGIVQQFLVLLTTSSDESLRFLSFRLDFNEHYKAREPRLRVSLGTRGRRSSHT

The text below walks through data of PMC8519919.

No constants are given. Whether binding was seen depends on the method and setting. In cells and extracts the contact can be indirect. Here binding means that the protein was enriched with, or labelled near, the bait; the list need not be complete. Sequences can lack the tags named with a protein.

As for “γTuRC subunit GCP3 (from UniProt Q96CW5 1-907)”, the binding result is listed as “binds”.
